Experimental data reported in PubChem BioAssay AID1671190 (National Center for Advancing Translational Sciences (NCATS), 2021).
Screen size: about 580,000 compounds; about 6,100 (1.1%) were called active. This list was built around the results that the source calls inconclusive (neither active nor inactive); the mix of calls is not that of the screen. Calls follow the shape of the dose curve; as a rule, active = well fitted inhibition curve with a large enough effect; inconclusive = small, poorly fitted or top-dose-only effect, or another doubt; inactive = no such curve, though single readings can be large or run the other way. Where the call is inconclusive, the potency comes from a doubtful curve fit.

Amino acid sequences for entries named in this document (tags omitted). A change or cut given only in a name is not applied to a line headed by its entry.
UniProt P18054: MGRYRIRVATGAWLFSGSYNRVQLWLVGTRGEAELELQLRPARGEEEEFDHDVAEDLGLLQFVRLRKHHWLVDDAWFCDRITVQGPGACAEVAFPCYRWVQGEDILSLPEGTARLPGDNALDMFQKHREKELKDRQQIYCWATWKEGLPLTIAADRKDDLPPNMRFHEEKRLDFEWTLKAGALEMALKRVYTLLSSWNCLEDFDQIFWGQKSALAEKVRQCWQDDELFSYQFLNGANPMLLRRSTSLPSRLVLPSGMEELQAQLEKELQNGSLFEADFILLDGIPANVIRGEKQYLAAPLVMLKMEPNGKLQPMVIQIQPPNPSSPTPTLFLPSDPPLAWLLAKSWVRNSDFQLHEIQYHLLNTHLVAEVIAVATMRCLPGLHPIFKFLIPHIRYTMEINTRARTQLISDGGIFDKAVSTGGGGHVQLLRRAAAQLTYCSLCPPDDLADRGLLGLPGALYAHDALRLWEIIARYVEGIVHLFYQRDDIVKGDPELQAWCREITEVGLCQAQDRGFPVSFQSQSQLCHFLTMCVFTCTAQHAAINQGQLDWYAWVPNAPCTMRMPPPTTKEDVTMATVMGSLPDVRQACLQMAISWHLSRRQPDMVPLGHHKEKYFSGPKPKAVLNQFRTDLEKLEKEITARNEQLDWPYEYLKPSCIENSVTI

target: Polyunsaturated fatty acid lipoxygenase ALOX12 (Homo sapiens) (UniProt P18054); test: Primary qHTS assay for inhibitors of human arachidonate 12S-lipoxygenase (ALOX12): Round 2; settings: purified 12hLO, xylenol orange hydroperoxide absorbance; series mostly up to 108 µM
Outline: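 Purified human 12hLO (150 nM final) in 25 mM Hepes, 0.01% Triton X-100, pH 7.0 was preincubated 15 min at room temperature with compound. Then 40 uM arachidonic acid was added, 30 min. Hydroperoxide was read by Fe-XO absorbance ratio 573/405 nm.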
Potency is read from the fitted curve at half-maximal effect.

| Compound | Potency |
| --- | --- |
| Cc1cc(Cl)ccc1OCC(=O)Nn1c(C)ccc1C | inconclusive: 2 µM [inhibitor, full curve, poor fit] |
| CCCc1cc(C(N)=O)c(NC(=O)c2ccco2)s1 | inconclusive: 39.8 µM [inhibitor, partial curve, poor fit] |
| CCCCCNC(=O)C(C1CC1)n1c(=O)c(-c2cc3ccccc3[nH]2)nc2ccccc21 (stereo not drawn) | inconclusive: 70.8 µM [inhibitor, single point] |
| O=C1NC(=S)NC1=Cc1ccc2c(c1)CCC2 | inconclusive: 79.4 µM [inhibitor, partial curve, poor fit] |
| Cc1cc(C)c2c(-n3cccc3)nn(CC(=O)Nc3cc(Cl)ccc3C)c2n1 | inactive |
| Cc1ccc(N2C(N)=C(C#N)C(c3cccnc3)C3=C2CC(C)(C)CC3=O)cc1 (stereo not drawn) | inconclusive: 39.8 µM [inhibitor, partial curve, poor fit] |
| O=C(c1cccs1)N1CCc2ccccc2C1 | inconclusive: 112 µM [inhibitor, partial curve, poor fit] |
| Clc1cccc(Oc2cnc3ccccc3n2)c1 | inactive |
| Nn1c(SCc2csc(-c3ccccc3)n2)nnc1-c1cccs1 | inconclusive: 44.7 µM [inhibitor, partial curve, poor fit] |
| CC(C)NC(=O)c1ccccc1C(=O)c1ccc(F)cc1 | inactive |
| CC(C)(C)OC(=O)N1C[C@@]23C[C@H](c4cccc(F)c4)[C@@H](C[C@@H]2S1(=O)=O)O3 | inconclusive: 44.7 µM [inhibitor, partial curve, poor fit] |
| CCOC(=O)c1nn(-c2ccc(F)cc2)c(=O)c2c(N)scc12 | inconclusive: 39.8 µM [inhibitor, partial curve, poor fit] |
| CCc1nnc(NC(=O)c2ccc(Br)o2)s1 | inactive |
| O=C(CSc1nc(O)cc(=O)n1-c1ccccc1)NCc1ccccc1 | inconclusive: 31.6 µM [inhibitor, partial curve, poor fit] |
| CCN(Cc1ccc(C(N)=O)cc1)Cc1cccs1 | inconclusive: 100 µM [inhibitor, partial curve, poor fit] |
| COc1ccc(Oc2nc(-c3ccccc3)ncc2C(=O)O)cc1 | inconclusive: 2.51 µM [inhibitor, full curve, poor fit] |
| C[C@H]1CN([C@@H](C)CO)C(=O)c2cccc(NS(=O)(=O)c3ccc(F)cc3)c2O[C@H]1CN(C)Cc1ccc(Cl)c(Cl)c1 | inconclusive: 89.1 µM [inhibitor, single point] |
| COc1ccc(/C=N/Nc2nonc2N)cc1OC | inactive |

An excerpt from above in order of formula weight, ascending:

| Compound | Potency |
| --- | --- |
| O=C1NC(=S)NC1=Cc1ccc2c(c1)CCC2 | inconclusive: 79.4 µM [inhibitor, partial curve, poor fit] |
| CCCc1cc(C(N)=O)c(NC(=O)c2ccco2)s1 | inconclusive: 39.8 µM [inhibitor, partial curve, poor fit] |
| CCc1nnc(NC(=O)c2ccc(Br)o2)s1 | inactive |
| CCCCCNC(=O)C(C1CC1)n1c(=O)c(-c2cc3ccccc3[nH]2)nc2ccccc21 (stereo not drawn) | inconclusive: 70.8 µM [inhibitor, single point] |
| C[C@H]1CN([C@@H](C)CO)C(=O)c2cccc(NS(=O)(=O)c3ccc(F)cc3)c2O[C@H]1CN(C)Cc1ccc(Cl)c(Cl)c1 | inconclusive: 89.1 µM [inhibitor, single point] |
